Test results as given in paper PMC8644300.
Results are given in words; binding and its absence hold for the method and conditions named. For some assays here: Binding seen in cells or lysates may run through a third protein.

The chains behind the UniProt entries cited, without tags or fusion partners. Where a name states a change or a piece, a line headed by the entry shows the natural chain unless it says otherwise.
UniProt Q9M0Z3: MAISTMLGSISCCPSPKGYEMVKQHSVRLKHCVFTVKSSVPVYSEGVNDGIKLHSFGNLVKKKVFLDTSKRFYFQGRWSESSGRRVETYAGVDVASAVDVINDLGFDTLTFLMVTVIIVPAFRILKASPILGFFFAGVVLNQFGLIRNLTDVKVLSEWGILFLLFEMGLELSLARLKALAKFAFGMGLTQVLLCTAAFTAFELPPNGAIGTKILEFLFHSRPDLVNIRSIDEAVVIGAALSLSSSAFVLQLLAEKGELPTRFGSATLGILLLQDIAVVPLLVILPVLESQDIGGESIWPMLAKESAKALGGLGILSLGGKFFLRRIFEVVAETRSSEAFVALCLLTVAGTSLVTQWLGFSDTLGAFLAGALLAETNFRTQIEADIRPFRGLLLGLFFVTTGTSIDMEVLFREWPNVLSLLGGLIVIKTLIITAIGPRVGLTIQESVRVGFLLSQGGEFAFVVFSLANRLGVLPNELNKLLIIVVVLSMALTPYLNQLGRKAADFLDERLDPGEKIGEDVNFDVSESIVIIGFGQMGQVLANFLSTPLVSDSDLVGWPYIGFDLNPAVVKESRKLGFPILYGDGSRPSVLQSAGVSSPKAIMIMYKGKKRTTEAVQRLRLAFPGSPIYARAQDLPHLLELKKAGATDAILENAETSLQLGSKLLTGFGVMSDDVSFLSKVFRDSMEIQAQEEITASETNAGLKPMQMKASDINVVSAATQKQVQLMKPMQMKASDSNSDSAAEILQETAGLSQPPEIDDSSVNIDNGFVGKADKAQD

B1: PsbS (protein, UniProt Q9XF91 60-265)
chain: AAPKKVEKPKSKVEDGIFGTSGGIGFTKANELFVGRVAMIGFAASLLGEALTGKGILAQLNLETGIPIYEAEPLLLFFILFTLLGAIGALGDRGKFVDDPPTGLEKAVIPPGKNVRSALGLKEQGPLFGFTKANELFVGRLAQLGIAFSLIGEIITGKGALAQLNIETGIPIQDIEPLVLLNVAFFFFAAINPGNGKFITDDGEES
B2: thylakoid membrane insertase Alb3 (protein, UniProt Q8LBP4 57-462)
chain: SLNEIPPFHGLDSSVDIGAIFTRAESLLYTIADAAVVGADSVVTTDSSAVQKSGGWFGFISDAMELVLKILKDGLSAVHVPYAYGFAIILLTIIVKAATYPLTKQQVESTLAMQNLQPKIKAIQQRYAGNQERIQLETSRLYKQAGVNPLAGCLPTLATIPVWIGLYQALSNVANEGLFTEGFFWIPSLGGPTSIAARQSGSGISWLFPFVDGHPPLGWYDTVAYLVLPVLLIASQYVSMEIMKPPQTDDPAQKNTLLVFKFLPLMIGYFALSVPSGLSIYWLTNNVLSTAQQVYLRKLGGAKPNMDENASKIISAGRAKRSIAQPDDAGERFRQLKEQEKRSKKNKAVAKDTVELVEESQSESEEGSDDEEEEAREGALASSTTSKPLPEVGQRRSKRSKRKRTV

Assays:
[1] = molecular target: KEA3.2-GFP (Arabidopsis thaliana) (UniProt Q9M0Z3); assay: co-IP; GFP trap on solubilized thylakoids of 2xKEA3.2 and 2xKEA3.3, Col-0 as control, pellets probed by immunoblot
[2] = molecular target: K+ exchange antiporter 3 (KEA3), native KEA3.2 isoform (Arabidopsis thaliana (endogenous in Col-0)); assay: native gel or EMSA; Blue Native PAGE of solubilized thylakoids; gel slices with the KEA3 high molecular weight complexes excised and analysed by LC-MS/MS for proteins with the same distribution as KEA3

| Binder | binding [1] | binding [2] |
| --- | --- | --- |
| B1 | no binding | – |
| B2 | – | no binding |
